In test [1] the target is human MYCT1 (hMYCT1) (human) (UniProt Q8N699). Briefly: SPR, antibody captured via anti-human Fc IgG, MYCT1 as analyte.
The target is the same in test [2]. Briefly: SPR full kinetics, steady-state affinity model.
Test [3] has the same target. Briefly: SPR koff ranking, 1:1 binding model.
Test [4] has the same target. Briefly: SPR full kinetics, 1:1 binding model.

By UniProt entry, the sequences of proteins in these tests, tags left out. Where a name states a change or a piece, a line headed by the entry shows the natural chain unless it says otherwise.
UniProt Q8N699: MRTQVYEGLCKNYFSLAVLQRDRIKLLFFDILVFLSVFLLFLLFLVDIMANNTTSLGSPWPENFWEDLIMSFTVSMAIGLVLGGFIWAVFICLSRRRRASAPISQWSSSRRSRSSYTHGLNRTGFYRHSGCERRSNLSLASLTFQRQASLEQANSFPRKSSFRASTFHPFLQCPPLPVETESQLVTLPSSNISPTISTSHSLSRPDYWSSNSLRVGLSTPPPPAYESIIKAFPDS

Results are given in words; binding and its absence hold for the method and conditions named. Some entries that bind do so weakly or less than the wild type.

B1: 2B4-z2-uIgG1K (antibody, V domains shown)
VH: QVQLVQSGAEVKKPGASVKVSCKASGYTFTDYNMHWVRQAPGQGLEWMGYINPNNGGSSYNRKFKGRVTMTTDTSTSTAYMELRSLRSDDTAVYYCATRFDVWGQGTTVTVSS
VL: DVVMTQSPLSLPVTLGQPASISCKSSQSLLFSDGKTYLNWLQQRPGQSPRRLIYLVSKLDSGVPDRFSGSGSGTDFTLKISRVEAEDVGVYYCWQGTHFPQTFGGGTKVEIK
B1: in test [1], the binding result is “binds”.

B2: 2B4-z2-p7-uIgG1K (antibody, V domains shown)
VH: QVQLVQSGAEVKKPGASVKVSCKASGYTFTDYNMHWVRQAPGQGLEWMGYINPNSGGSSYNRKFKGRVTMTTDTSTSTAYMELRSLRSDDTAVYYCATRFDVWGQGTTVTVSS
VL: DVVMTQSPLSLPVTLGQPASISCKSSQSLLFSDAKTYLNWLQQRPGQSPRRLIYLVSKLDSGVPDRFSGSGSGTDFTLKISRVEAEDVGVYYCWQGTHFPQTFGGGTKVEIK
B2: the binding entry in test [2] is given as “binds”.

B3: 2B4-z8-p7-uIgG1K (antibody, V domains shown)
VH: QVQLVQSGAEVKKPGASVKVSCKASGYTFTDYNMHWVRQAPGQGLEWIGYINPNSGGSSYNRKFKGRVTMTTDTSTSTAYMELRSLRSDDTAVYYCATRFDVWGQGTTVTVSS
VL: DVVMTQSPLSLPVTLGQPASISCKSSQSLLFSDAKTYLNWLQQRPGQSPRRLIYLVSKLDSGVPDRFSGSGSGTDFTLKISRVEAEDVGVYYCWQGTHFPQTFGGGTKVEIK
In the case of B3, the binding entry in test [2] is recorded as “binds”.

B4: 2B4-z8-uIgG1K (antibody, V domains shown)
VH: QVQLVQSGAEVKKPGASVKVSCKASGYTFTDYNMHWVRQAPGQGLEWIGYINPNNGGSSYNRKFKGRVTMTTDTSTSTAYMELRSLRSDDTAVYYCATRFDVWGQGTTVTVSS
VL: DVVMTQSPLSLPVTLGQPASISCKSSQSLLFSDGKTYLNWLQQRPGQSPRRLIYLVSKLDSGVPDRFSGSGSGTDFTLKISRVEAEDVGVYYCWQGTHFPQTFGGGTKVEIK
Turning to B4, the binding entry in test [1] was “binds”.

B5: 11B6-z12-uIgG1K (antibody, V domains shown)
VH: EVQLVESGGGLVKPGGSLRLSCAASGFTFSDFGIHWVRQAPGKGLEWVGYISSGSRTIHYADTVKGRFTISRDNAKNSLYLQMNSLRAEDTAIYYCARRDWDPEWLAYWGQGTLVTVSS
VL: DVVMTQSPLSLPVTPGEPASISCRSSLSLVHSNGHTYLHWYLQKPGQSPKLLIYKVSNRFSGVPDRFSGSGSGTDFTLKIRRVEAEDVGVYFCSQSTHVPFTFGQGTKLEIK
As for B5, in test [3], the binding entry is “binds”.

B6: 11B6-z16-p3-uIgG1K (antibody, V domains shown)
VH: EVQLVESGGGLVKPGGSLRLSCAASGFTFSDFGIHWVRQAPGKGLEWVGYISSGSRTIHYADTVKGRFTISRDNAKNSLYLQMNSLRAEDTAVYYCARRDWDPEWLAYWGQGTLVTVSS
VL: DIVMTQSPLSLPVTPGEPASISCRSSLSLVHSNAHTYLHWYLQKPGQSPKLLIYKVSNRFSGVPDRFSGSGSGTDFTLKISRVEAEDVGVYFCSQSTHVPFTFGQGTKLEIK
As to B6, the binding entry in test [4] is “binds”.

B7: 11B6-z12-p3-uIgG1K (antibody, V domains shown)
VH: EVQLVESGGGLVKPGGSLRLSCAASGFTFSDFGIHWVRQAPGKGLEWVGYISSGSRTIHYADTVKGRFTISRDNAKNSLYLQMNSLRAEDTAIYYCARRDWDPEWLAYWGQGTLVTVSS
VL: DVVMTQSPLSLPVTPGEPASISCRSSLSLVHSNAHTYLHWYLQKPGQSPKLLIYKVSNRFSGVPDRFSGSGSGTDFTLKIRRVEAEDVGVYFCSQSTHVPFTFGQGTKLEIK
B7: in test [4], the binding entry is “binds”.

B8: 11B6-z10-uIgG1K (antibody, V domains shown)
VH: EVQLVESGGGLVKPGGSLRLSCAASGFTFSDFGIHWVRQAPGKGLEWVGYISSGSRTIHYADTVKGRFTISRDNAKNSLYLQMNSLRAEDTAVYYCARRDWDPEWLAYWGQGTLVTVSS
VL: DVVMTQSPLSLPVTPGEPASISCRSSLSLVHSNGHTYLHWYLQKPGQSPQLLIYKVSNRFSGVPDRFSGSGSGTDFTLKISRVEAEDVGVYFCSQSTHVPFTFGQGTKLEIK
Consider B8, for which the binding result in test [3] was “binds”.

B9: 11B6-z10-p3-uIgG1K (antibody, V domains shown)
VH: EVQLVESGGGLVKPGGSLRLSCAASGFTFSDFGIHWVRQAPGKGLEWVGYISSGSRTIHYADTVKGRFTISRDNAKNSLYLQMNSLRAEDTAVYYCARRDWDPEWLAYWGQGTLVTVSS
VL: DVVMTQSPLSLPVTPGEPASISCRSSLSLVHSNAHTYLHWYLQKPGQSPQLLIYKVSNRFSGVPDRFSGSGSGTDFTLKISRVEAEDVGVYFCSQSTHVPFTFGQGTKLEIK
In the case of B9, in test [4], the binding result is given as “binds”.

These data come from patent publication EP4737482A1.
